Test results as given in US9055743B2, “Alpha, beta-unsaturated imines” (BAYER INTELLECTUAL PROPERTY GMBH, priority 2010, dated 2015).
Some results were stated once for a whole list of compounds, not compound by compound.

Each molecule was assayed on brown dog ticks (Rhipicephalus sanguineus, fully sensitive laboratory strain) (assay: Contact test against ticks in vitro (RHIPSA contact)). Conditions: 500 g/ha, after 48 h.
Format: in vivo
Method: Contact Test Against Ticks In Vitro (RHIPSA Contact)
An amount of 0.9 mg of active compound is weighed out, and 1 ml of acetone is added.
Of this acetone solution, either 250 μl are transferred directly into roll-necked test tubes or an aliquot is diluted with 4 parts of acetone 1:5. For its part, 250 μl of this dilution are pipetted into roll-necked test tubes, or the dilution is diluted further, etc., until the desired number of dilution steps is reached.
The roll-necked test tubes containing the solution of the active compound in acetone are immediately coated in a fume cupboard by 2 h of swing rotation at 30 rpm. After evaporation of the solvent, the active compound contained in the acetone gives, at the highest concentration tested, an active compound content of 500 g/ha (or […]) on the surface of the test tube.
5-10 Adult brown dog ticks (Rhipicephalus sanguineus, fully sensitive laboratory strain) are transferred into the test tubes prepared in this manner, and the test tubes are closed with a plastic roll-necked lid provided with fine holes.
The test tubes are stored vertically at room temperature and humidity for 24 or 48 h in the dark. After 24 and 48 h, the activity of the active compound applied is determined by comparison with an acetone-treated control. To this end, the ticks are shaken down to the bottom of the test tube, and the test tubes are heated on a hotplate to at most 50° C. for at most 10 minutes. Here, an observed normal activity (speedy recovery from a resting position and climbing of the test tube wall (heat avoidance)) for all ticks corresponds to 0% activity, a strongly restricted or uncoordinated (knock-down) movement or death of all ticks corresponds to 100% activity.

| SMILES | activity against the brown dog tick |
| --- | --- |
| Cc1ccc(N=C2C(=CSc3ccccc3)C(C)c3ccccc32)cc1 (mixture of isomers) [Example 1-5] | at least 80% |
| CC1C(=CSc2ccccc2)C(=Nc2ccc(F)cc2)c2ccccc21 (mixture of isomers) [Example 1-6] | at least 80% |
| Cc1ccc(N=C2C(=CSc3ccc(F)cc3)CCc3sccc32)cc1 (mixture of isomers) [Example 1-26] | at least 80% |
| Cc1ccc(N=C2C(=CSc3ccc(F)cc3)C(C)c3cccc(F)c32)cc1 (mixture of isomers) [Example 1-27] | at least 80% |
| Cc1ccc(N=C2C(=CSc3ccc(F)cc3)CCc3c(F)cccc32)cc1 (mixture of isomers) [Example 1-34] | at least 80% |
| CCC1C(=CSc2ccc(F)cc2)C(=Nc2ccc(C)cc2)c2ccccc21 (mixture of isomers) [Example 1-37] | at least 80% |
| Cc1ccc(N=C2C(=CSc3ccccc3)CSc3ccccc32)cc1 [Example 1-4] | at least 80% |
| Cc1ccc(N=C2C(=CSc3ccccc3)COc3ccccc32)cc1 [Example 1-7] | at least 80% |
| C(Sc1ccccc1)=C1CCc2ccccc2C1=Nc1ccccc1 [Example 1-8] | at least 80% |
| COc1ccc(N=C2C(=CSc3ccccc3)CCc3ccccc32)cc1 [Example 1-10] | at least 80% |
| Cc1ccc(N=C2C(=CSc3ccc(F)cc3)CCc3ccc(F)cc32)cc1 [Example 1-15] | at least 80% |
| COc1ccc2c(c1)CCC(=CSc1ccc(F)cc1)C2=Nc1ccc(C)cc1 [Example 1-17] | at least 80% |
| Cc1ccc(N=C2C(=CSc3ccc(C)cc3)CCc3ccccc32)cc1 [Example 1-28] | at least 80% |
| Cc1ccc(N=C2C(=CSc3ccc(F)cc3)CCc3occc32)cc1 [Example 1-29] | at least 80% |
| Cc1ccc(N=C2C(=CSc3ccc(F)cc3)COc3ccccc32)cc1 [Example 1-36] | at least 80% |
| CCc1ccc(N=C2C(=CSc3ccc(F)cc3)CCc3ccccc32)cc1 [Example 1-39] | at least 80% |
| Cc1ccc(N=C2C(=CSc3ccc(F)cc3)CCc3cc(C)ccc32)cc1 [Example 1-46] | at least 80% |
| Cc1ccc(N=C2C(=CSc3ccc(F)cc3)CCc3cc(Cl)ccc32)cc1 [Example 1-47] | at least 80% |
| Cc1ccc(N=C2C(=CSc3ccc(F)cc3)COc3cc(F)ccc32)cc1 [Example 1-58] | at least 80% |
| Cc1ccc(N=C2C(=CSc3ccc(F)cc3F)CCc3ccccc32)cc1 [Example 1-79] | at least 80% |
| Cc1ccc(N=C2C(=CSc3ccccc3F)CCc3ccccc32)cc1 [Example 1-80] | at least 80% |
| Cc1ccc(N=C2C(=CSc3cc(F)cc(F)c3)CCc3ccccc32)cc1 [Example 1-81] | at least 80% |
| Cc1ccc(N=C2C(=CSc3ccc(C(F)(F)F)cc3)CCc3ccccc32)cc1 [Example 1-82] | at least 80% |
| Cc1ccc(N=C2c3ccccc3OCC2C(Sc2ccc(F)cc2)Sc2ccc(F)cc2)cc1 (stereo not shown) [Example 2-11] | at least 80% |

The molecules below were run on Anopheles gambiae (homocygus kdr) (assay: Anopheles test (ANPHGB surface treatment)). Conditions: 100 mg/m^2, 24 hours after contact, exposition 30 minutes.
Format: in vivo
Method: Anopheles Test (ANPHGB Surface Treatment) Solvent: Acetone
(§1) To produce a suitable preparation of active compound, the active compound is dissolved in acetone (2 mg/ml). The active compound preparation is pipetted onto a glazed tile and, after drying, adult mosquitoes of the species Anopheles gambiae (homocygus kdr) are placed onto the treated tile. The exposition time is 30 minutes.
(§2) Two hours after contact to the treated surface, the knock-down proportion of the test animals in % is determined.
24 hours after contact to the treated surface, the mortality in % is determined. Here, 100% means that all mosquitoes have been killed; 0% means that none of the mosquitoes has been killed.

| SMILES | activity (mortality in %) [%] |
| --- | --- |
| CC1C(=CSc2ccccc2)C(=Nc2ccc(Cl)cc2)c2ccccc21 (stereo not shown) [Example 1-11] | 100 |
| COc1ccc2c(c1)OCC(=CSc1ccc(F)cc1)C2=Nc1ccc(C)cc1 [Example 1-53] | 100 |
| Cc1ccc(N=C2c3ccccc3CCC2C(Sc2ccc(F)cc2)Sc2ccc(F)cc2)cc1 (stereo not shown) [Example 2-5] | 100 |

What follows are molecules tested on Aedes aegypti (assay: Aedes test (AEDSAE surface treatment)). Conditions: 100 mg/m^2, 24 hours after contact, exposition 30 minutes.
Format: in vivo
Method: Aedes Test (AEDSAE Surface Treatment)
as §1, with “Aedes aegypti” for “Anopheles gambiae (homocygus kdr)”
as §2
24 hours after contact to the treated surface, the mortality in % is determined Here, 100% means that all mosquitoes have been killed; 0% means that none of the mosquitoes has been killed.

| SMILES | activity (mortality in %) [%] |
| --- | --- |
| COc1ccc2c(c1)OCC(=CSc1ccc(F)cc1)C2=Nc1ccc(C)cc1 [Example 1-53] | 100 |
